Measured values from article PMC8667040, “COUPY Coumarins as Novel Mitochondria-Targeted Photodynamic Therapy Anticancer Agents” (Journal of Medicinal Chemistry, 2021).

Legend:
[1] = Singlet oxygen generation, cell-free DPBF assay; assay type: physicochemical; conditions: air-saturated DCM; 505 nm LED; DPBF scavenger; methylene blue reference
HeLa cells = assay: Cellular uptake and intracellular localization by confocal microscopy; assay type: cell-based, human; conditions: 0.5 μM for 1, 1 μM for 2 and 15, 5 μM for 8; 30 min at 37 °C; λex 561 nm

SMILES | singlet oxygen quantum yield ΦΔ [1] | intracellular localization (HeLa cells)
CCN(CC)c1ccc2c(c1)O/C(=C(/C#N)c1cc[n+](C)cc1)C=C2C [Compound 1] | 0.049 | accumulated preferentially in mitochondria
CCN(CC)c1ccc2c(c1)O/C(=C(/C#N)c1cc[n+](CC(F)(F)F)cc1)C=C2C [Compound 2] | 0.046 | accumulated preferentially in mitochondria
CCN(CC)c1ccc2c(c1)O/C(=C(/C#N)c1ccncc1)C=C2C [Compound 8] |  | accumulated mainly in nucleoli as well as in vesicles
CCCCCC[n+]1ccc(/C(C#N)=C2/C=C(C)c3ccc(N(CC)CC)cc3O2)cc1 [Compound 15] | 0.11 | accumulated in mitochondria but not in nucleoli
